Source: PMC10032529

Protein sequences, listed by entry. Tags and fused reporters are not part of them. Lines headed by an entry give the natural chain unless they say otherwise; changes in a name come on top.
UniProt Q12967: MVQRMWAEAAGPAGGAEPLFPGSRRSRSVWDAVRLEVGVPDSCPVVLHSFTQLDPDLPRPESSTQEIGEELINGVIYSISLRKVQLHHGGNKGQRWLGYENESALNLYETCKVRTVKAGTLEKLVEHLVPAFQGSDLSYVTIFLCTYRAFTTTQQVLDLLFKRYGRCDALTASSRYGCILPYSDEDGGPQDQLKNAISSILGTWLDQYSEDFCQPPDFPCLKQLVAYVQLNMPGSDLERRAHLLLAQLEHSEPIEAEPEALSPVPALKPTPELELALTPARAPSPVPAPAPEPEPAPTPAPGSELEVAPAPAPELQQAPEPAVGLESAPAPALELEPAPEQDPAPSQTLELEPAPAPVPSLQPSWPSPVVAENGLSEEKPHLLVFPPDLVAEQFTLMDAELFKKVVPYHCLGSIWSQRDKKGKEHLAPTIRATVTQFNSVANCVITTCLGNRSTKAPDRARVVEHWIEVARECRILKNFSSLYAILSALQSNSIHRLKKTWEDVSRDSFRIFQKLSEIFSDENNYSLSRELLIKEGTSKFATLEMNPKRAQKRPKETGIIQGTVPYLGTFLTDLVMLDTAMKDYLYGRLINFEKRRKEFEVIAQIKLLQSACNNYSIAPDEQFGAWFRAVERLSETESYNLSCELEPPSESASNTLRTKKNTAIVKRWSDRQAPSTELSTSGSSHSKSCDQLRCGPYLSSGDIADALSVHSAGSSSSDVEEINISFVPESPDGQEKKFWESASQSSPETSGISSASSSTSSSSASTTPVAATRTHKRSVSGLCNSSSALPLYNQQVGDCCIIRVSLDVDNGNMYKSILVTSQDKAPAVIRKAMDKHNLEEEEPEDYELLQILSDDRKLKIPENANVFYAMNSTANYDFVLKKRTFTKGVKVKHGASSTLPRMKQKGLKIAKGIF
UniProt P61224: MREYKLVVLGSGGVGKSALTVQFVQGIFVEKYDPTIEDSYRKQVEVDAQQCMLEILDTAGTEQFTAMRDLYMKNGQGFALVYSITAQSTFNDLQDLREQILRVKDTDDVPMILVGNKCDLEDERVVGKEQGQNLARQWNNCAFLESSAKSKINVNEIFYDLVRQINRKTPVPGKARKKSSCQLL

Molecular target: GST-RalGDS Rap-binding domain (UniProt Q12967)
Assay: pull-down; GST-RBD held on GSH-Sepharose / glutathione-agarose resin; lysates of HA-Rap1 transfected NRK, HELA or HL-1 cells (pre-treated 2 h with DMSO, 8-Br-cAMP, ESI-09 or trypomastigotes of T. cruzi Y strain) incubated with the resin 1 h at 4°C; washed, eluted with cracking buffer, Western blot; only the target purified

binding: binds
Substance: HA-Rap1b (from UniProt P61224 1-184)

No constants are given. Whether binding was seen depends on the method and setting. Binding seen in cells or lysates may run through a third protein. Binding calls can cover weak binding; strength is not graded here.
